Values from PubChem BioAssay AID652259 (Drosophila RNAi Screening Center, 2013).

Screen: 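Knock-downs that push a Wingless-driven reporter up or down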 (primary screen)
Cells: Drosophila clone 8 imaginal disc epithelial cells
Reagents: long dsRNA against Drosophila genes
Treatment: pathway stimulated by co-transfected Wingless expression plasmid
Read-out: 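Firefly luciferase from a tcf-site Wingless reporter, measured alongside co-transfected Renilla luciferase that tracks transfection; pathway stimulated by a Wingless plasmid; the firefly-to-Renilla ratio is not deposited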
Direction: firefly reporter light: higher = more Wg reporter light, before normalisation; Renilla control light: higher = more transfected or surviving cells
Active means: 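a knock-down is a candidate when at least two out of four statistical tests show it departing from its plate mean; one test alone signals a weak candidate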
Calls: active = candidate regulator (raises or lowers reporter); inactive = not a candidate
The deposit covers about 22,000 reagents; this is an unselected part of those that have a named target and a result. Over the whole deposit, 233 (1.1%) were called active. 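Light values are raw, unnormalised plate reads; the ratio scores behind the reporter calls were not deposited.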 A plus sign joins genes that one reagent is predicted to hit. Not stated in the record: the amount of reagent, the time to read-out, the dose of the treatment.

gene,dsRNA,"reporter change call, replicate 1","firefly reporter light, replicate 1","firefly reporter light, replicate 2","Renilla control light, replicate 1","Renilla control light, replicate 2",call
HtrA2,DRSC16425,,11504,,2444,,inactive
NaCP60E,DRSC04307,,13829,,5207,,inactive
NaCP60E,DRSC21351,,6.76e5,7.45e5,4.15e5,3.46e5,inactive
emb,DRSC03528,Wg reporter activity raised,34393,,4448,,active
GAPsec,DRSC10564,,3419,,1490,,inactive
ste24b,DRSC07315,,8502,,2119,,inactive
Cdlc2,DRSC00743,,14480,,4124,,inactive
Adi1,DRSC10945,,8923,,3544,,inactive
Adi1,DRSC21485,,4.99e5,5.32e5,2.25e5,1.87e5,inactive
CG13581,DRSC04216,,1799,8416,801,2699,inactive
CG42260,DRSC04172,,2603,6432,848,2936,inactive
CG42260,DRSC04385,,3676,8426,672,3179,inactive
jagn,DRSC12152,,14242,,3848,,inactive
brv2,DRSC10226,,5460,,2237,,inactive
yellow-g2,DRSC08338,Wg reporter activity lowered,4455,,2403,,inactive
CG15422,DRSC00436,,3082,7514,1115,2656,inactive
MED19,DRSC10516,,4721,,1205,,inactive
Surf6,DRSC15588,,3228,7909,1273,3046,inactive
Cpsf5,DRSC10374,,4464,,2064,,inactive
CG10339,DRSC04065,,1782,6249,359,1169,inactive
pn,DRSC18822,,1830,4361,1001,1701,inactive
CG15544,DRSC15082,,8176,,3186,,inactive
Bsg,DRSC01010,,13292,,3233,,inactive
Bsg,DRSC01011,,18955,,7873,,inactive
CG12637,DRSC17845,,21229,,11472,,inactive
su(Hw),DRSC17074,,4768,,1879,,inactive
CG4250,DRSC04455,,3095,9328,960,3861,inactive
CG43124,DRSC13867,,5667,,2129,,inactive
CG13579,DRSC04215,,2810,6947,930,2995,inactive
Rcd1,DRSC07116,,10978,,869,,inactive
CG32793,DRSC18145,,20040,,15092,,inactive
CG32793,DRSC18194,,19997,,11815,,inactive
Ak3,DRSC16075,,12593,,3225,,inactive
kcc,DRSC04316,,11891,,3783,,inactive
kcc,DRSC04516,,2633,5547,866,2262,inactive
Stip1,DRSC00756,,9497,,3921,,inactive
CG15617,DRSC06570,,5510,,2656,,inactive
CG18130,DRSC19790,,21456,,9269,,inactive

Next part, starting with the last 9 of the part before.
gene,dsRNA,"reporter change call, replicate 1","firefly reporter light, replicate 1","firefly reporter light, replicate 2","Renilla control light, replicate 1","Renilla control light, replicate 2",call
Rcd1,DRSC07116,,10978,,869,,inactive
CG32793,DRSC18145,,20040,,15092,,inactive
CG32793,DRSC18194,,19997,,11815,,inactive
Ak3,DRSC16075,,12593,,3225,,inactive
kcc,DRSC04316,,11891,,3783,,inactive
kcc,DRSC04516,,2633,5547,866,2262,inactive
Stip1,DRSC00756,,9497,,3921,,inactive
CG15617,DRSC06570,,5510,,2656,,inactive
CG18130,DRSC19790,,21456,,9269,,inactive
CG14321,DRSC14800,,16193,,2555,,inactive
vito,DRSC21781,,2.28e5,3.12e5,88296,86447,inactive
ds,DRSC00815,,1892,7314,688,2204,inactive
CG31195,DRSC13440,,2890,,1595,,inactive
ich,DRSC12715,,2567,,1177,,inactive
ich,DRSC14448,Wg reporter activity lowered,7302,,3428,,active
5PtaseI,DRSC16269,,2464,4970,1265,1546,inactive
5PtaseI,DRSC22090,,6.62e5,6.73e5,2.81e5,2.94e5,inactive
mei-S332,DRSC04704,,11568,,3139,,inactive
Art3,DRSC16065,,7542,,2683,,inactive
Rab3,DRSC07523,,22192,,6612,,inactive
Nazo,DRSC14343,,24420,,4949,,inactive
CNT2,DRSC07073,,7362,,2756,,inactive
CAH7,DRSC15524,,13557,,3917,,inactive
yellow-f2,DRSC16372,,15035,,4677,,inactive
CG32473,DRSC14352,,13545,,4017,,inactive
CG32473,DRSC16446,,9784,,4290,,inactive
CG4049,DRSC04443,,3072,5209,573,2180,inactive
CG17329,DRSC01926,,2665,5706,866,2536,inactive
CG9257,DRSC03173,,2486,7578,765,2538,inactive
Tsf3,DRSC06849,,12424,,3210,,inactive
CG31600,DRSC22541,,8.53e5,8.77e5,3.03e5,2.86e5,inactive
CG1774,DRSC15258,,1564,4394,1056,1700,inactive
Osi4,DRSC12134,,15184,,3205,,inactive
CG10031,DRSC00286,,3425,10349,1000,2666,inactive
CG10702,DRSC02097,,6432,,2180,,inactive
CG1116,DRSC12166,,10443,,2184,,inactive
Ttc1,DRSC15016,,26967,,8400,,inactive
Ttc1,DRSC22469,,7.42e5,7.60e5,3.59e5,3.63e5,inactive
fan,DRSC10930,,1698,4753,1080,2508,inactive
snoRNA:U31:54Ec + snoRNA:snR38:54Eb + snoRNA:U27:54Eb + 8 more,DRSC06458,,6644,,2987,,inactive
CG3213,DRSC00576,,3601,10683,1456,2451,inactive
lncRNA:CR31386,DRSC22769,,6.73e5,7.10e5,2.36e5,1.89e5,inactive
faf,DRSC16942,,18349,,17906,,inactive
CG15601,DRSC19670,,25704,,8786,,inactive
